Chains of the proteins cited; added tags and fusions are not shown.
UniProt P53350, whole entry, looked up: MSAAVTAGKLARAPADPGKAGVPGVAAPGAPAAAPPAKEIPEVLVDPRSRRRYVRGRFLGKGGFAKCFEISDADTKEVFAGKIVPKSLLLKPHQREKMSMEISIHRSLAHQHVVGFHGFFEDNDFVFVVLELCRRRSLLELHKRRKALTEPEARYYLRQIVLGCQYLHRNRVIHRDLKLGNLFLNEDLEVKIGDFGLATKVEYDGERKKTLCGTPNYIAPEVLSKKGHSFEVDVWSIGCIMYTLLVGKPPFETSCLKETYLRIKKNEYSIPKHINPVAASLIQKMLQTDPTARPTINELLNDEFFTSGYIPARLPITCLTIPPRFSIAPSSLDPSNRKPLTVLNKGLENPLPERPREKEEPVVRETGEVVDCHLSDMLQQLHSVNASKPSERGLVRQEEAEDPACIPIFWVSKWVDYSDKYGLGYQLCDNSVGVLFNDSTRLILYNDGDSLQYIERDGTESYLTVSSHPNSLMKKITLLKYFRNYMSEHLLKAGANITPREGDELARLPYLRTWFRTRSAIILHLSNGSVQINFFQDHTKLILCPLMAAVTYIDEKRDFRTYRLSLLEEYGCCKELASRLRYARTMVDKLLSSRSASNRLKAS

Screen size: about 360,000 compounds; about 10,000 (2.8%) were called active. Inconclusive means that the source gave no clear call. Such entries were picked first, then a sample of the others. Calls follow the shape of the dose curve; as a rule, active = well fitted inhibition curve with a large enough effect; inconclusive = small, poorly fitted or top-dose-only effect; inactive = flat fitted curve, though single readings scatter. Potencies beside an inconclusive call are fits to weak or partial responses and may not hold up.
Each compound was assayed against Serine/threonine-protein kinase PLK1 (Homo sapiens) (UniProt P53350) (assay: qHTS for Inhibitors of PLK1-PDB (polo-like kinase 1 - polo-box domain): Primary Screen). Details: Plk1 PBD binding of FITC phosphopeptide, fluorescence polarization.
For CSc1nnc(-c2ccc(NC(N)=S)cc2)o1, the max response, negative = inhibition was inactive: -6.32%.
With Cc1ccc(NC(=O)C2CCCN(S(=O)(=O)c3cnc[nH]3)C2)cc1C (stereo not drawn) the max response, negative = inhibition was inconclusive: -32.1% [inhibitor].
With O=C(O)CN1C(=O)/C(=C\c2ccccc2OCc2ccccc2)SC1=S the Potency was inconclusive: 29.9 µM [inhibitor, partial curve].
With N#CC(=C1C=C(Br)C(=NO)C=C1Cl)c1ccc(Cl)cc1 the Potency was inconclusive: 10.6 µM [inhibitor, partial curve].
With Cc1c(NS(=O)(=O)c2ccc(N)cc2)c(=O)n(-c2ccccc2)n1C the Potency was inconclusive: 33.6 µM [inhibitor, single point].
For OC1(c2cccc(C(F)(F)F)c2)CCNCC1, the max response, negative = inhibition was inactive: -0.404%.
For NC1=NC(=O)/C(=C/c2ccc(-c3ccc(S(N)(=O)=O)cc3)o2)S1, the max response, negative = inhibition was inactive: 5.19%.
With COc1cccc(CNS(=O)(=O)c2c(C)[nH]c(C)c2C(=O)N2CCCCC2)c1 the Potency was active: 29.9 µM.
NCC(O)COc1ccc2c(c1)OCO2 (stereo not drawn) was tested, and the Potency was inconclusive: 37.7 µM [inhibitor, single point].
With NC(=O)C1CCCN1Cc1ccc2c(c1)OCO2 (stereo not drawn) the max response, negative = inhibition was inactive: -8.9%.
N=c1c(C(=O)NCC2CCCO2)cc2c(=O)n3ccccc3nc2n1Cc1cccnc1 (stereo not drawn) was tested, and the Potency was inconclusive: 29.9 µM [inhibitor, partial curve].
In the case of c1csc(-c2nc3c4ccccc4c4ccccc4c3[nH]2)c1, the max response, negative = inhibition is reported as inactive: -10.3%.
With O=C(N1CCOCC1)N(CCN1CCOCC1)Cc1cccc2ccccc12 the Potency was inconclusive: 26.7 µM [inhibitor, partial curve].
Cc1nn(C)cc1S(=O)(=O)N1CCN(Cc2cccc(Cl)c2)CC1 was tested, and the Potency was inconclusive: 26.7 µM [inhibitor, single point].
O=c1[nH]c(C(Cl)(Cl)Cl)nc2ccc3ccccc3c12 was tested, and the Potency was inconclusive: 33.6 µM [inhibitor, single point].
With CCOC(=O)N1CCN(C(=O)c2ccc(OC)cc2)CC1 the max response, negative = inhibition was inconclusive: -8.45% [inhibitor].
Cc1ccc(N(CCC#N)C(=O)CSc2ccc3c(c2)OCCO3)cc1 was tested, and the Potency was inconclusive: 16.8 µM [inhibitor, partial curve].
With COc1ccccc1N1CCN(C(=O)C(CC(C)C)NC(=O)C2CCCCC2)CC1 (stereo not drawn) the Potency was inconclusive: 37.7 µM [inhibitor, single point].
With CN(C)CCN(Cc1ccccc1)c1ccnc(N(C)C)c1C#N the max response, negative = inhibition was inactive: -11.8%.
S=c1[nH]nc(-c2ccc(Br)cc2)n1-c1ccc2c(c1)OCCO2 was tested, and the Potency was inconclusive: 29.9 µM [inhibitor, partial curve].
For COC(=O)c1ccccc1NC1=C/C(=N\S(=O)(=O)c2ccc(C(=O)O)cc2)c2ccccc2C1=O, the Potency was inconclusive: 3.36 µM [inhibitor, partial curve].
CCC1=C/C(=C/N(C)c2ccccc2)C(=O)S1 was tested, and the Potency was inconclusive: 26.7 µM [inhibitor, partial curve].
In the case of O=C(NNS(=O)(=O)c1ccccc1[N+](=O)[O-])c1ccc(O)cc1, the Potency is reported as active: 23.8 µM.
For O=[N+]([O-])c1cccc(COc2ccccc2CN2CCCC2)c1, the max response, negative = inhibition was inactive: -5.49%.
In the case of CCCOc1ccc(-c2nn(-c3ccccc3)cc2/C=C2\SC(=S)N(C3CCS(=O)(=O)C3)C2=O)cc1 (stereo not drawn), the Potency is reported as inconclusive: 15 µM [inhibitor, partial curve].
For COc1ccc(S(=O)(=O)N2CCOCC2)cc1NC(=O)c1ccccc1-c1ccc(C(F)(F)F)cc1, the Potency was inconclusive: 23.8 µM [inhibitor, partial curve].
In the case of COc1cc(C(=O)NC(=S)NCc2ccco2)cc(OC)c1OC, the Potency is reported as inconclusive: 26.7 µM [inhibitor, single point].
C=CCOc1ccc(CN(C)C(=O)CNC(=O)c2ccc(-c3ccccc3)cc2)cc1 was tested, and the max response, negative = inhibition was inactive: -7.72%.
For COCCNC(=O)/C(C#N)=C/c1cccc(/C=C(\C#N)C(=O)NCCOC)c1, the Potency was inconclusive: 18.9 µM [inhibitor, partial curve].
For O=C(CSc1nnc(Cc2cccs2)n1C1CCCCC1)N1CCCc2ccccc21, the Potency was inconclusive: 26.7 µM [inhibitor, partial curve].
With Cc1cc(NC(=S)N(Cc2ccc(Br)cc2)Cc2ccc(C(=O)O)cc2)ccc1Cl the Potency was inconclusive: 37.7 µM [inhibitor, partial curve].
With Cc1cc(=O)n2c(C(=O)Nc3ccc(C(=O)OC(C)C)cc3)c(C(=O)Nc3ccccc3)sc2n1 the Potency was inconclusive: 23.8 µM [inhibitor, partial curve].
In the case of CCSc1nnc(-c2ccc(S(=O)(=O)N3CCOCC3)cc2)n1C, the max response, negative = inhibition is reported as inactive: -27.2%.
For COc1ccc(C2NC(=O)C(C#N)=C(S)N2c2ccc(C)cc2)cc1OC (stereo not drawn), the max response, negative = inhibition was inconclusive: -36.2% [inhibitor].
For COC(=O)c1c(NC(=O)C(=O)N2CCOCC2)sc2c1CCC2, the Potency was inconclusive: 21.2 µM [inhibitor, partial curve].
In the case of Oc1ccc(Nc2nc(-c3ccccc3F)nc3ccccc23)cc1, the max response, negative = inhibition is reported as inactive: -1.61%.
In the case of Cc1ccc(-c2nnc(N3CCN(C(=O)CN4C(=O)c5ccccc5C4=O)CC3)c3ccccc23)cc1, the Potency is reported as inconclusive: 23.8 µM [inhibitor, single point].
For Cc1ccc(/C=C2\C(=N)N3N=C(CC(=O)N4CCCCC4)SC3=NC2=O)cc1, the Potency was inconclusive: 33.6 µM [inhibitor, partial curve, poor fit].
With CCc1nnc(NS(=O)(=O)c2ccc(NC(=S)NC(=O)c3ccc(Br)cc3)cc2)s1 the Potency was inconclusive: 18.9 µM [inhibitor, partial curve].
For CC1(C)OC(=O)C(=Cc2ccc(-c3ccc(S(N)(=O)=O)cc3)o2)C(=O)O1, the Potency was active: 1.34 µM.
With COC(=O)c1ccc(NC(=O)c2nc(S(=O)(=O)Cc3cccc(C)c3)ncc2Cl)cc1 the Potency was inconclusive: 10.6 µM [inhibitor, partial curve].
Cc1ccc(NC(=O)CCS(=O)(=O)c2ccc3nc(C)sc3c2)cc1 was tested, and the Potency was active: 26.7 µM.
N#CCCN(Cc1cccnc1)C(=S)NC(=O)c1ccc(S(=O)(=O)N2CCCC2)cc1 was tested, and the Potency was inconclusive: 75.2 µM [inhibitor, partial curve].

Reference: PubChem BioAssay AID720504 (National Center for Advancing Translational Sciences (NCATS), 2013)
% is scaled to controls: 0 for no effect and ±100 for the full control effect; potency is read from the fitted curve at half-maximal effect.
Also: nearly all actives have a fitted effect of over 65% in size.
For max response, negative = inhibition in this document: series mostly up to about 57 µM.
